Test results reported in the supplement of paper PMC12067093, “Discovery and optimisation of a covalent ligand for TRIM25 and its application to targeted protein ubiquitination” (Chemical Science, 2025).
Some of the results follow.

What follows are targets tested with Cc1cc(ccc1-c1ccccc1)C(=O)N1CCCN(CC1)C(=O)CCl [compound 10] (assay: probe-labelled cysteine peptide fold change vs DMSO (competition) (log2 fold change); higher = less target engagement (more negative = stronger competition)). Conditions: 10 µM; THP-1; incubation time: 4 h.
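Also: competitive profiling in live THP-1 cells: cysteine peptides tagged with an iodoacetamide desthiobiotin (IA-DTB) probe, intensity after compound treatment relative to DMSO-treated cells.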

Target | probe-labelled cysteine peptide fold change
MMACHC_Q9Y4U1_149_ISGVCIHPR (UniProt Q9Y4U1) | -0.0406
MIS18BP1_Q6P0N0_528_ATTTYDFDCDNLELK (UniProt Q6P0N0) | -0.102
MOB4_Q9Y3A3_51_ADCSNIDK (UniProt Q9Y3A3) | -0.0815
MRPL37_Q9BZE1_203_RICVQNSTFSATWNR (UniProt Q9BZE1) | -0.258
MICAL2_O94851_411_QAHQLLVALVGDSLLEPFWPMGTGCAR (UniProt O94851) | -0.293
MRPL45_Q9BRJ2_151_DIFIEAHLCLNNSDHDR (UniProt Q9BRJ2) | -0.476
MRPL21_Q7Z2W9_124_VTSEDLILIGNELDLACGER (UniProt Q7Z2W9) | -0.102
MMADHC_Q9H3L0_52_AFSTAGSSGSDESHVAAAPPDICSR (UniProt Q9H3L0) | -0.291
MMTAG2_Q9BU76_179_AEDQTESSCESHR (UniProt Q9BU76) | 0.0154
MRGBP_Q9NV56_59_HFHMICIR (UniProt Q9NV56) | 0.0567
MLST8_Q9BVC4_34_FWQAHSGICTR (UniProt Q9BVC4) | -0.182
MORC3_Q14149_413+416_RPDQTWVQCDACLK (UniProt Q14149) | 0.0843
MKRN1_Q9UHC7_305_FGILSNCNHTYCLK (UniProt Q9UHC7) | -0.0721
MIPEP_Q99797_142_EAAEEACR (UniProt Q99797) | -0.0572
MINPP1_Q9UNW1_337_SSCTLFQDIFQHLDK (UniProt Q9UNW1) | -0.000835
MIOS_Q9NXC5_321_SVQPCDNYIASFAWHPTSQNR (UniProt Q9NXC5) | 0.112
MKRN2_Q9H000_262_FGILSNCNHTYCLSCIR (UniProt Q9H000) | 0.0843
MIOS_Q9NXC5_377_HLYECTEEENDNSLEK (UniProt Q9NXC5) | -0.029
MON2_Q7Z3U7_592_AELTMAALCGR (UniProt Q7Z3U7) | 0.222

Target | probe-labelled cysteine peptide fold change
MIS12_Q9H081_133_YKTELCTK (UniProt Q9H081) | 0.136
MRPS12_O15235_64_GVVLCTFTR (UniProt O15235) | 0.00519
MRPL38_Q96DV4_321_HQETMTPAGLSFFQCR (UniProt Q96DV4) | -0.112
MMADHC_Q9H3L0_261+262_HLGFSVDDLGCCK (UniProt Q9H3L0) | -0.412
MIF_P14174_60_ASVPDGFLSELTQQLAQATGKPPQYIAVHVVPDQLMAFGGSSEPCALCSLHSIGK (UniProt P14174) | 0.1
MKI67_P46013_643_SQHDILQMICSK (UniProt P46013) | -0.612
MRPL44_Q9H9J2_167_NLVDFLTGEEVVCHVAR (UniProt Q9H9J2) | 0.167
MICAL3_Q7RTP6_25_FVQATTCK (UniProt Q7RTP6) | -0.00228
MOV10_Q9HCE1_553+564_AHILACAPSNSGADLLCQR (UniProt Q9HCE1) | -0.077
MRPL10_Q7Z7H8_180_TVPFLPLLGGCIDDTILSR (UniProt Q7Z7H8) | 0.134
MRPL53_Q96EL3_49_STNLNCSVIADVR (UniProt Q96EL3) | 0.164
MORC3_Q14149_349_ANNMGVGVVGIIECNFLKPTHNK (UniProt Q14149) | -0.0131
MIEF1_Q9NQG6_111_SLQTLPTDSSTFDTDTFCPPRPK (UniProt Q9NQG6) | -0.267
MRC2_Q9UBG0_532_KGWTWHSPSCYWLGEDQVTYSEAR (UniProt Q9UBG0) | -0.264
MORC2_Q9Y6X9_502_AMEIPTTIQCDLCLK (UniProt Q9Y6X9) | 0.185
MPHOSPH8_Q99549_753_LALLEPVFPIACHR (UniProt Q99549) | 0.0715
MRPL37_Q9BZE1_177_RETYCPVIVDNLIQLCK (UniProt Q9BZE1) | -0.189
MKI67_P46013_773_EQPQLTSTCHIAISNSENLLGK (UniProt P46013) | 0.0324

Same assay, conditions: 50 µM; THP-1; incubation time: 4 h

Target | probe-labelled cysteine peptide fold change
MMACHC_Q9Y4U1_149_ISGVCIHPR (UniProt Q9Y4U1) | 0.0687
MIS18BP1_Q6P0N0_528_ATTTYDFDCDNLELK (UniProt Q6P0N0) | 0.238
MOB4_Q9Y3A3_51_ADCSNIDK (UniProt Q9Y3A3) | 0.00286
MRPL37_Q9BZE1_203_RICVQNSTFSATWNR (UniProt Q9BZE1) | -0.177
MICAL2_O94851_411_QAHQLLVALVGDSLLEPFWPMGTGCAR (UniProt O94851) | 0.312
MRPL45_Q9BRJ2_151_DIFIEAHLCLNNSDHDR (UniProt Q9BRJ2) | -0.107
MRPL21_Q7Z2W9_124_VTSEDLILIGNELDLACGER (UniProt Q7Z2W9) | 0.206
MMADHC_Q9H3L0_52_AFSTAGSSGSDESHVAAAPPDICSR (UniProt Q9H3L0) | -0.319
MMTAG2_Q9BU76_179_AEDQTESSCESHR (UniProt Q9BU76) | -0.0762
MRGBP_Q9NV56_59_HFHMICIR (UniProt Q9NV56) | -0.262
MLST8_Q9BVC4_34_FWQAHSGICTR (UniProt Q9BVC4) | 0.0338
MORC3_Q14149_413+416_RPDQTWVQCDACLK (UniProt Q14149) | -0.211
MKRN1_Q9UHC7_305_FGILSNCNHTYCLK (UniProt Q9UHC7) | -0.535
MIPEP_Q99797_142_EAAEEACR (UniProt Q99797) | 0.21
MINPP1_Q9UNW1_337_SSCTLFQDIFQHLDK (UniProt Q9UNW1) | 0.123
MIOS_Q9NXC5_321_SVQPCDNYIASFAWHPTSQNR (UniProt Q9NXC5) | -0.0374
MKRN2_Q9H000_262_FGILSNCNHTYCLSCIR (UniProt Q9H000) | 0.0333
MIOS_Q9NXC5_377_HLYECTEEENDNSLEK (UniProt Q9NXC5) | -0.247
MON2_Q7Z3U7_592_AELTMAALCGR (UniProt Q7Z3U7) | 0.176

Target | probe-labelled cysteine peptide fold change
MIS12_Q9H081_133_YKTELCTK (UniProt Q9H081) | 0.127
MRPS12_O15235_64_GVVLCTFTR (UniProt O15235) | -0.316
MRPL38_Q96DV4_321_HQETMTPAGLSFFQCR (UniProt Q96DV4) | 0.114
MMADHC_Q9H3L0_261+262_HLGFSVDDLGCCK (UniProt Q9H3L0) | -1.16
MIF_P14174_60_ASVPDGFLSELTQQLAQATGKPPQYIAVHVVPDQLMAFGGSSEPCALCSLHSIGK (UniProt P14174) | 0.243
MKI67_P46013_643_SQHDILQMICSK (UniProt P46013) | -2.28
MRPL44_Q9H9J2_167_NLVDFLTGEEVVCHVAR (UniProt Q9H9J2) | 0.174
MICAL3_Q7RTP6_25_FVQATTCK (UniProt Q7RTP6) | 0.178
MOV10_Q9HCE1_553+564_AHILACAPSNSGADLLCQR (UniProt Q9HCE1) | -0.358
MRPL10_Q7Z7H8_180_TVPFLPLLGGCIDDTILSR (UniProt Q7Z7H8) | 0.222
MRPL53_Q96EL3_49_STNLNCSVIADVR (UniProt Q96EL3) | 0.0554
MORC3_Q14149_349_ANNMGVGVVGIIECNFLKPTHNK (UniProt Q14149) | -0.285
MIEF1_Q9NQG6_111_SLQTLPTDSSTFDTDTFCPPRPK (UniProt Q9NQG6) | -0.0189
MRC2_Q9UBG0_532_KGWTWHSPSCYWLGEDQVTYSEAR (UniProt Q9UBG0) | -0.311
MORC2_Q9Y6X9_502_AMEIPTTIQCDLCLK (UniProt Q9Y6X9) | -0.0469
MPHOSPH8_Q99549_753_LALLEPVFPIACHR (UniProt Q99549) | -0.0714
MRPL37_Q9BZE1_177_RETYCPVIVDNLIQLCK (UniProt Q9BZE1) | -0.208
MKI67_P46013_773_EQPQLTSTCHIAISNSENLLGK (UniProt P46013) | -0.0646
